The test system of data set [1] is Human polyclonal IgG (plasma) (Homo sapiens). As to the kind of experiment: binding assay. The settings on record: affinity chromatography, 5 mM MgCl2 pH 5.5, eluted pH 7.4, most plasma contaminants not retained, purified native protein, single-stranded DNA.
Data set [2] concerns IgG1 (plasma IgG sub-class) (Homo sapiens). As to the kind of experiment: SPR. To be noted: pH 5.5, purified native protein, single-stranded DNA.
Data set [3] relates to IgG2 (plasma IgG sub-class) (Homo sapiens). As to the kind of experiment: SPR. To be noted: purified native protein, single-stranded DNA.
The test system of data set [4] is Human polyclonal IgG (plasma) (Homo sapiens). Briefly: SPR. The settings on record: purified native protein, label: biotin, single-stranded DNA.
For data set [5], the system named is IgG3 (plasma IgG sub-class) (Homo sapiens). As to the kind of experiment: SPR. The settings on record: pH 5.5, purified native protein, label: biotin, single-stranded DNA.
[6] abbreviates: 5' biotin-triethylene glycol spacer, resistant to 2 M NaCl, label: biotin.
The mark [7] stands for this setting: 5' biotin-triethylene glycol spacer, pH 5.5, resistant to 2 M NaCl, label: biotin.

The exact form of at least one protein or probe is not confirmed. For part of these data: Negatives hold for the conditions tested. For part of these data: The comparison behind a weaker result is the experiment's own reference, which may not be listed here.

On to “AAGTTTGTGGGGCTGGGGTTCGGTCCTGGCACAAATTCGT [A6-4 core]”, for which the binding result in data set [1] (5' amino-C6 spacer, IgG subclass distribution retained, variant of A6-4) is “binds”.
Turning to “GGGTCAATGCCAGGTCTCAAGTTTGTGGGGCTGGGGTTCGGTCCTGGCACAAATTCGTATCGGCTCGCAAGCAGTC [A6-4]”, the binding result is “binds” in data set [2] (setting [6]); “binds” in data set [3] (setting [7]); “binds” in data set [4] (5' biotin-triethylene glycol spacer, IgG 200 nM, MESBS pH 5.5 with or without 5 mM Mg2+); “binds” in data set [5] (5' biotin-triethylene glycol spacer, resistant to 2 M NaCl).
With “GGGTCAATGCCAGGTCTCCACGGTATAGTCTCGCCCAGTGCCCTTTGTTGGACTTCCTATCGGCTCGCAAGCAGTC [A6-8]”, the binding result in data set [2] (setting [6]) is recorded as “binds”; in data set [3] (setting [7]) it was “binds”; in data set [4] (5' biotin-triethylene glycol spacer, IgG 200 nM, pH 5.5, resistant to 2 M NaCl, released at pH 7.4), “binds”; in data set [5] (5' biotin-triethylene glycol spacer, complex less resistant to 2 M NaCl) it was “binds”.
On to “GGGTCAATGCCAGGTCTCCCCAGCCTCATCTCACGGCATAGTCTCGCCACACTGGAAATCGGCTCGCAAGCAGTC [A6-2]”, for which the binding result in data set [2] (5' biotin-triethylene glycol spacer (SPR), 5' amino-C6 spacer and 3' idT (chromatography), resistant to 2 M NaCl, label: …) is “binds”; in data set [3] (5' biotin-triethylene glycol spacer (SPR), 5' amino-C6 spacer and 3' idT (chromatography), pH 5.5, resistant to 2 M NaCl, label: …), “binds”; in data set [4] (5' biotin-triethylene glycol spacer (SPR), 5' amino-C6 spacer and 3' idT (chromatography), IgG 200 nM, 50 mM MES 150 mM NaCl pH 5.5, resistant to 2 M NaCl, released at pH 7.4, highest binding at pH 5.30) it was “binds”; in data set [4] (5' biotin-triethylene glycol spacer (SPR), 5' amino-C6 spacer and 3' idT (chromatography), no significant binding above pH 6.0), “no binding”; in data set [5] (5' biotin-triethylene glycol spacer (SPR), 5' amino-C6 spacer and 3' idT (chromatography), complex less resistant to 2 M NaCl), “binds”; in data set [1] (5' biotin-triethylene glycol spacer (SPR), 5' amino-C6 spacer and 3' idT (chromatography), yield 82% purified IgG, 66% plasma, purity >95%, label: biotin), “binds”.
Turning to “GGGTCAATGCCAGGTCTCGACTATTCCTCCGGCCTCTTCCCTAATCAGTGGCATCTCTATCGGCTCGCAAGCAGTC [A6-3]”, the binding result is listed as “binds more weakly” in data set [2] (5' biotin-triethylene glycol spacer, slower association than IgG2/IgG4, eluted by 2 M NaCl, label: biotin); “binds” in data set [3] (5' biotin-triethylene glycol spacer, label: biotin); “binds more weakly” in data set [5] (5' biotin-triethylene glycol spacer, slower association than IgG2/IgG4, eluted by 2 M NaCl).

The values are drawn from patent US20190161756, “Anti-Immunoglobulin G Aptamers and Uses Thereof” (Laboratoire Francais du Fractionnement et des …, published 2019).
